This test has as its target T1, recombinant human IL4 (Sigma, Cat #14269) (human), P05112.
T1 chain: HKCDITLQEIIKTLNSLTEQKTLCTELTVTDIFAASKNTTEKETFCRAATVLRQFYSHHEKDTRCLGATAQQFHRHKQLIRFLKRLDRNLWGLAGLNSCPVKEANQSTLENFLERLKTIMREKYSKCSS
Nature of the test: HP-SEC, self-association. Conditions: remark: other sources report otherwise. A general note: In gel filtration, larger molecules generally elute earlier.

No constants are given. Whether binding was seen depends on the method and setting.

One molecule from US20200147178A1 (SYNERKINE PHARMA B V, published 2020) can be followed below.

B1: recombinant human IL4 (Sigma, Cat #14269), P05112 25-153 (ligand, UniProt P05112 25-153, looked up)
chain: T1 chain
With B1, the binding entry is given as “no binding”.
